# According to PubChem BioAssay AID1347423 (Functional Genomics Laboratory (NCATS/FGL), 2020):
# In all, about 52,000 sequences went through this assay and about 210 (0.4%) were called active.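 How the source made its calls: active means gene whose silencing raises cell survival under the drug, median off-target-corrected z-score across its silencing RNAs 2 or more; inactive means the rest.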 Some of the results follow.
# Assay: Resistance to Poly (ADP-Ribose) Polymerase inhibitor: Gene Identification via Genome-wide siRNA Screen
# Conditions: mouse BRCA2 R2336H ES cells, olaparib, CellTiter-Glo viability; hits give high values
# In short: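 Mouse BRCA2 R2336H ES cells were reverse-transfected with siRNA (20 nM final), treated at 48 h with 500 nM olaparib, and read by CellTiter-Glo after 72 h. Scores: MAD-based z per siRNA, median per gene, seed off-target correction.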
row,Sequence,z-score
1,GCUAGUAAACAGAAUCCUCTT against Tubgcp2,inactive: 1.73
2,GGAGGUAGGAGCCAUAAGATT against Pter,inactive: -0.546
3,GGAGUUCUUCUAGCCAUGUTT against Olfr633,inactive: -1
4,GGAACUGAUUCUUAGCUACTT against 9430028I06Rik,inactive: -0.0424
5,GGUGAGGAGGCAAAGAUUCTT against Fkbpl,inactive: -0.64
6,GUACCCAAAAUGUUGAUGATT against Olfr979,inactive: 1.39
7,CCUUACUCAUCUCAACUUATT against Plekhe1,inactive: -0.211
8,CCAGACAGAUGGAUACCAATT against 5830472M02Rik,inactive: -0.355
9,GGAUCUUGGUUACCCUAGUTT against Casp9,inactive: -1.98
10,GGUAGAAAAUGUUUACCCUTT against C330018K18Rik,inactive: -0.2
11,GCCCAAUCUACACAGACCATT against Slc7a13,inactive: 0.273
12,GGAUAUCGUUUUCCUUGUATT against Retn,inactive: -0.699
13,GCCAUUUGAAGGCUUUUGUTT against D130079A08Rik,inactive: -0.234
14,GGAGAAAAUUGAACUGAAATT against Cacna1c,inactive: -0.874
15,GGAGAUUUUCCAGAGGCUGTT against 1300006C06Rik,inactive: -0.606
16,GCUAGUUUCCGUCGCUUUGTT against Cpeb4,inactive: 0.221
17,GGAGAAAGUGUAGUGUUUATT against Siglec5,inactive: 0.179
18,GCACACAAAACAUCUAACCTT against A430091O22Rik,inactive: 0.0809
19,GCCGGCAUCAGCUGAUUUCTT against Igbp1,inactive: -0.311
20,GGAUCAGUCAUUUCUCUGCTT against Aox3,inactive: 0.745
21,CGGUAGAGUGCUUACGCAATT against Camk2g,inactive: 0.494
22,GGCCUGGAGCUUUUAUAUUTT against LOC382686,inactive: 0.341

# Part of the list above, with tabs:
row	Sequence	z-score
10	GGUAGAAAAUGUUUACCCUTT against C330018K18Rik	inactive: -0.2
11	GCCCAAUCUACACAGACCATT against Slc7a13	inactive: 0.273

# Remaining list, next part.

row,Sequence,z-score
1,GGACAGUUCGUGUUUGGUUTT against Wdfy2,inactive: -1.48
2,GGAGGAAGAGGAGUAAAGGTT against Hoxa7,inactive: -0.0638
3,GGUAACUGUUACACAAAUCTT against 2810446P07Rik,inactive: 0.131
4,CCUAAACAGGUUGAUAGGCTT against Tuba1,inactive: 0.469
5,GCUUACUUCCAAGGUCUACTT against Ptch2,inactive: -0.637
6,GCGGAGGUUUCCUCCUUAATT against Fem1c,inactive: -1.56
7,GGCAAGGAAUCAAUGUCUCTT against Fscn2,inactive: 0.337
8,GGGUUUCUGACCCUUGGUUTT against V1rh12,inactive: -0.0653
9,CGGAACCUUAUUUAAAACUTT against Sirt5,inactive: 0.393
10,GGGAAAGAAAGUGAUUGUCTT against Hsd11b1,inactive: 2.23
11,GGCUAGCAAAUCCUACUGGTT against Mpl,inactive: -1.27
12,GGUGUUCCCGGUUGAAUAATT against Sepw1,inactive: -2.83
13,GGAAGAAAAACAACCAAGUTT against Elovl4,inactive: -0.665
14,GGAAAUAUUUUCUCAGCAATT against Pcdhga1,inactive: 1.47
15,CCGUGAUGGUAACAAAUCATT against Phyhipl,inactive: 0.093
16,GGAGGAGAACCCAUGUAACTT against Tcl1b1,inactive: -0.0286
17,GCCUGAUUAUUUGUAAUUGTT against 4632404H12Rik,inactive: -0.694
18,GGAAUUCUUCCCAUCUGUATT against AI451006,inactive: -0.363
19,CCGUGUGACAUUUGAGUAUTT against Crhbp,inactive: -0.419
20,GCUUCCAUAGGUUUAACUUTT against 4921525D22Rik,inactive: 0.741
21,GGCCAUCAGAAGCAAGAUUTT against Akr1c21,inactive: 0.0777
22,GGAAUCGGAACCAGUUCCCTT against Smyd5,inactive: -0.308

row,Sequence,z-score
1,AAUGCUAAUUACCAUGACATT against Lphn3,inactive: 0.151
2,GCGGCAUGGACUUAGUAAATT against Fbxo5,inactive: -1.8
3,GGAUCUAUGGACGACCUUCTT against Kcnj10,inactive: -0.661
4,GCUAGUUAAGAAGCAACAATT against Rpl12,inactive: -3.33
5,GGACUUGACCCUGUCUUUGTT against Ostm1,inactive: -1.2
6,CCGCUCAGUUCAUCUCAAATT against Snx15,inactive: 1.05
7,GGAAAUGUAUCGCUUGAAUTT against Dna2l,inactive: -0.496
8,GGACAUGGAUCAAAGUUCATT against Zfp40,inactive: 0.376
9,GAAAAAAUCUAUCUACCCUTT against Hoxb4,inactive: -0.234
10,GCCUAUGGGAUUCGAAUUGTT against P2rx2,inactive: 0.288
11,CCAAGCUUGACCCUACACUTT against Olfr1121,inactive: -0.249
12,GCCACCAGUGAAUAAUACATT against 4932701A20Rik,inactive: -1.94
13,GACACAGCAUCUUCAUGGATT against V1ra6,inactive: 1.68
14,GGGACAAGCCAGAAACAACTT against Col19a1,inactive: 0.225
15,GGGUAAUCAGAUUGAAAGATT against Dnahc5,inactive: 0.251
16,GGCUGAACUGGGAAAGCAATT against Krtap16-4,inactive: -1.89
17,GGGUUGUGCAAAUUGGGCUTT against Olfr570,inactive: -0.616
18,GCGGUACCUUCACUUGCAUTT against Lrfn1,inactive: -2.33
19,GGUGCUUUCCAGCUAUCCCTT against BC031140,inactive: 0.522
20,GGGACUUGCAUUUUAUAUUTT against 4930529M08Rik,inactive: 0.956
21,CCAGCAGUAAACUGGAAAUTT against Arhgap25,inactive: -0.782
22,GCGGGAAAUCACGAAGAUATT against Wdr31,inactive: -0.149
